These are yes or no findings as the source states them, for the method shown. Binding seen in cells or lysates may run through a third protein. Some entries that bind do so weakly or less than the wild type. For some assays here: Tags and fused reporters may be left off the sequences shown. Values belong to the binder of their own block, whether it stands above or below them.
Columns and labels:
FLAG–ELL (human), P55199 = molecular target: T1, FLAG–ELL (human), P55199; assay: co-IP; anti-FLAG immunoprecipitation from total lysate of HEK293 cells 24 hours after transfection with FLAG–ELL and HA–USPL1; lysis buffer 50 mM Tris-HCl pH 7.5, 150 mM NaCl, 1% NP40, 5 mM EDTA, 5 mM EGTA, 1 mM DTT; 3 hours; immunoblot with anti-HA and anti-FLAG; settings: remark: other sources report otherwise
T1 chain: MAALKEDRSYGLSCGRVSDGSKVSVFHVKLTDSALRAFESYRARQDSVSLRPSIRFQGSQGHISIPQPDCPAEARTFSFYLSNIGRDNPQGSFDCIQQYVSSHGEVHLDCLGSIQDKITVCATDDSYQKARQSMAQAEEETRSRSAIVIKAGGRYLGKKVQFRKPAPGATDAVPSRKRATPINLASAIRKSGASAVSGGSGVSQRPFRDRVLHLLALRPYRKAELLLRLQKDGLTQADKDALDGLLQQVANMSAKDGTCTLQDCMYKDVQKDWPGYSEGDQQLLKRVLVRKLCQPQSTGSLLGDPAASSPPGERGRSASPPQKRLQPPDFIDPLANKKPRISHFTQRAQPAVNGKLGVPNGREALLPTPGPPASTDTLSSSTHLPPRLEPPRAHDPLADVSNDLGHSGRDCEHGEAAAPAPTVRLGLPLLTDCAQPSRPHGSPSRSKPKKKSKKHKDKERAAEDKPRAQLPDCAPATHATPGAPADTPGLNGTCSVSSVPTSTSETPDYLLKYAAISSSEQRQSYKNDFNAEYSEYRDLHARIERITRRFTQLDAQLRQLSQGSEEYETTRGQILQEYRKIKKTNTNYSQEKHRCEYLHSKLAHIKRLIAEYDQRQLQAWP

[1] = molecular target: T2, endogenous USPL1 (human (endogenous in HEK293 and HeLa)), Q5W0Q7; assay: co-IP; anti-USPL1 immunoprecipitation of endogenous USPL1 from total lysate of HEK293 or HeLa cells; lysis buffer 50 mM Tris-HCl pH 7.5, 150 mM NaCl, 1% NP40, 5 mM EDTA, 5 mM EGTA, 1 mM DTT; empty Protein-G-agarose beads as control; immunoblot with ELL antibody; settings: remark: other sources report otherwise
T2 chain: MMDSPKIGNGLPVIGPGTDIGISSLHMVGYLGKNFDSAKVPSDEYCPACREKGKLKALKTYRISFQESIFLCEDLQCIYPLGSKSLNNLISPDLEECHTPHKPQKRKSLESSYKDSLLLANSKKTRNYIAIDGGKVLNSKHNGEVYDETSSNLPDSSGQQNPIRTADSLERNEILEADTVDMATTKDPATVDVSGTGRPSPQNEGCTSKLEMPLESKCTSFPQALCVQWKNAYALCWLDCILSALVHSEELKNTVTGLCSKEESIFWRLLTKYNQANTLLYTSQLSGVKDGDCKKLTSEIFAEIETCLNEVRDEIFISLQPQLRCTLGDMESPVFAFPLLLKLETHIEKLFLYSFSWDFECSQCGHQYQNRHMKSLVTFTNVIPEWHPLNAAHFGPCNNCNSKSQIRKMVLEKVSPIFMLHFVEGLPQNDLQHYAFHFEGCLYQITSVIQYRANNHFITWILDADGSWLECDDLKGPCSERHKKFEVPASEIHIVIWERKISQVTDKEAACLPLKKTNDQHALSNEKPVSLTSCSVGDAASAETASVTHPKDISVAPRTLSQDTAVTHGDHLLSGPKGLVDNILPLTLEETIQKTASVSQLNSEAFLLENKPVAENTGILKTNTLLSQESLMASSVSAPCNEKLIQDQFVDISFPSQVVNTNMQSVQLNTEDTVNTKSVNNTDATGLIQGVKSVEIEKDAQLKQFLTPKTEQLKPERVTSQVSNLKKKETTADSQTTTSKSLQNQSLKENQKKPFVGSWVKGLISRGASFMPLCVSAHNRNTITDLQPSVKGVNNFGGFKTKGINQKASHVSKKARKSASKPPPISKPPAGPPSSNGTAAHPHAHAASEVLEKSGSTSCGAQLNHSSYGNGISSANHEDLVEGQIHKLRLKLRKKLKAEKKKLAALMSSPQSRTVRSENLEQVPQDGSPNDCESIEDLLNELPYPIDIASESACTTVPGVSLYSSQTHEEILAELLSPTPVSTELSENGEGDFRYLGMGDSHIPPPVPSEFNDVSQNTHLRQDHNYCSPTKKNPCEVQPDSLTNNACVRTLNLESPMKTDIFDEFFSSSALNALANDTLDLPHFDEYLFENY

- binding (FLAG–ELL (human), P55199): binds
B1: HA–USPL1, Q5W0Q7 1-1092 (protein)
chain: T2 chain

- binding [1]: binds
B2: endogenous ELL, P55199 1-621 (protein)
chain: T1 chain
